## Results of single-concentration screens

The chains behind the UniProt entries cited, without tags or fusion partners. Residues count along the entry.
UniProt P9WPC5, whole entry: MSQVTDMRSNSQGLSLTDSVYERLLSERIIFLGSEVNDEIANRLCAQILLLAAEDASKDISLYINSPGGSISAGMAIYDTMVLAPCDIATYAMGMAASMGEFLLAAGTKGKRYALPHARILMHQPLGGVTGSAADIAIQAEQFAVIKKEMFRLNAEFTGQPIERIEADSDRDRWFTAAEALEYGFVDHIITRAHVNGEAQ
UniProt P9WPC3, whole entry partner: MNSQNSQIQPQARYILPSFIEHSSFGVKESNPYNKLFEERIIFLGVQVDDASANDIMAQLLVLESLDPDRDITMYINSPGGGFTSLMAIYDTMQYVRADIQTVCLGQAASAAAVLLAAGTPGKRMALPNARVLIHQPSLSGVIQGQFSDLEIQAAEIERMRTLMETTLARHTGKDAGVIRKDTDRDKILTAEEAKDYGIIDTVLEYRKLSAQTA
UniProt Q4DA54, 1-478: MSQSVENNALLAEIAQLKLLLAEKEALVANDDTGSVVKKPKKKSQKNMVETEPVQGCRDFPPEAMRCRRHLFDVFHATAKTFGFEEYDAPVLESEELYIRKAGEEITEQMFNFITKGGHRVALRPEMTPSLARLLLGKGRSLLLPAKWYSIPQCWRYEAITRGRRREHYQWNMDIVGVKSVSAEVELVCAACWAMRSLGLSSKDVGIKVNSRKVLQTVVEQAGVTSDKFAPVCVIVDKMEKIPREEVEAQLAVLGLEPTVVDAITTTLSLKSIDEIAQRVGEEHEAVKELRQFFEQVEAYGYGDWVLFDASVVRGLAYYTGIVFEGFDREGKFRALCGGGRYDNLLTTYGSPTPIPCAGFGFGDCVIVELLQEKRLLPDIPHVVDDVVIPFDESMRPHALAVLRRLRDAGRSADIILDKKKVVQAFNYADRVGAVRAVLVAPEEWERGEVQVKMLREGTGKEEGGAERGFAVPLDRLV
UniProt I6X8D2, whole entry: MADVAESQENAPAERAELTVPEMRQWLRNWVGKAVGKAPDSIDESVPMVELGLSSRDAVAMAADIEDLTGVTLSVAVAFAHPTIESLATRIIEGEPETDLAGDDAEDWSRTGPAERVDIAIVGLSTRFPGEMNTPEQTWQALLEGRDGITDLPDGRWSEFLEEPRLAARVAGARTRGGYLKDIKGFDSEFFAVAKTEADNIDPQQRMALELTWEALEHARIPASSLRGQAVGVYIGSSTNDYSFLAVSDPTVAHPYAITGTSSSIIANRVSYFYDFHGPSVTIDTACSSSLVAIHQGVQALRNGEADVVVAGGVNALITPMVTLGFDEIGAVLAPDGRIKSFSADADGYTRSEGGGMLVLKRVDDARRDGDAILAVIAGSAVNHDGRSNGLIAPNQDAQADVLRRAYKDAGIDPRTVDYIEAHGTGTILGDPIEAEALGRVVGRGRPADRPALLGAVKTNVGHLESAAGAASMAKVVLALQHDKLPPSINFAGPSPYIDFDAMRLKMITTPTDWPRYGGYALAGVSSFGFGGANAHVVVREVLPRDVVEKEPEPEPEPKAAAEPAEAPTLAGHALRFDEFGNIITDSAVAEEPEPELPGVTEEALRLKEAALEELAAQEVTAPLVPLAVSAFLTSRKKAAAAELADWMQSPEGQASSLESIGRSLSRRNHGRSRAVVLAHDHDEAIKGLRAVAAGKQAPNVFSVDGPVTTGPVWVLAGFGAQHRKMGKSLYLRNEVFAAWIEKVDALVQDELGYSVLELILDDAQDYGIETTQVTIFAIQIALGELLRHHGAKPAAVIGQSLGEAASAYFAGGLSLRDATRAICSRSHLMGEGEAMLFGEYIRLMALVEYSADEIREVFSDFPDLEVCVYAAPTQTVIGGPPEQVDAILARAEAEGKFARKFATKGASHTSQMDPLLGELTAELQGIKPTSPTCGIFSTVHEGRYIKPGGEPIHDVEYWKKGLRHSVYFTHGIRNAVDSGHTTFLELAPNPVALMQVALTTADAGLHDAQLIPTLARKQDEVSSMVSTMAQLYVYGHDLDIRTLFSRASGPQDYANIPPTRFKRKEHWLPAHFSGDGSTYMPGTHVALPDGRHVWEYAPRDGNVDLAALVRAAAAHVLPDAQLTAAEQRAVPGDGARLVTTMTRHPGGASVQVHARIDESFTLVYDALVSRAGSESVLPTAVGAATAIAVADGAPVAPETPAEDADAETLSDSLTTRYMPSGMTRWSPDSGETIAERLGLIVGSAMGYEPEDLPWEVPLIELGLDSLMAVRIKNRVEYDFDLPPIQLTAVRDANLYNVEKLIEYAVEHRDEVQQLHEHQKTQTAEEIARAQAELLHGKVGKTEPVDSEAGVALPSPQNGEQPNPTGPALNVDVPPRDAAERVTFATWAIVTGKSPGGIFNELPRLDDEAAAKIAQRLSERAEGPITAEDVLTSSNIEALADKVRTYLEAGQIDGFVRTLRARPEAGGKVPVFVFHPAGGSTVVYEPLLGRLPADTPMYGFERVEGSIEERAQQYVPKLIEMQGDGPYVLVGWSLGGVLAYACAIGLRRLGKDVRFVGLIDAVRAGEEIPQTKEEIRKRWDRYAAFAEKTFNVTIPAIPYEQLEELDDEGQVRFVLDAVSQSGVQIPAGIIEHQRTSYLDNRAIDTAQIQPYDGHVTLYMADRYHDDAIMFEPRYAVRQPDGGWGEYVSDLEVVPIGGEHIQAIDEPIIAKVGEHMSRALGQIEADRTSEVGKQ
UniProt Q8IDJ8, 1-583: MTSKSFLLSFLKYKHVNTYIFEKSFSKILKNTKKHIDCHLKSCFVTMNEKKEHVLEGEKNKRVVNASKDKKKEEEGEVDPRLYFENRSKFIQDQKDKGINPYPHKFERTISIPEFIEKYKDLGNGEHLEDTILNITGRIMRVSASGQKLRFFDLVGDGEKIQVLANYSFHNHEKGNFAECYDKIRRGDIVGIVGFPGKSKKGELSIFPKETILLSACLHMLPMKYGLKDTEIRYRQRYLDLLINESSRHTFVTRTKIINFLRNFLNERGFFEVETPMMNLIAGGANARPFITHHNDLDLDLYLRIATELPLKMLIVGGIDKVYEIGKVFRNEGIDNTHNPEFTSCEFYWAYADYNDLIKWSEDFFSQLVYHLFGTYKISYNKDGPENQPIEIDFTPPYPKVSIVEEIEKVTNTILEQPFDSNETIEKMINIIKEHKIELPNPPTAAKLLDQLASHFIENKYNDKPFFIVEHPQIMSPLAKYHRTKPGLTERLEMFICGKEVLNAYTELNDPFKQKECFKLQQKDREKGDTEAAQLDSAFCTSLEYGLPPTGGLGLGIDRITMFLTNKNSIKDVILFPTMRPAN

Measurements from “University of Dundee, Small-Polar-MMV Screening Library” (2021), ChEMBL document CHEMBL3988442.

ClpP1P2: 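Protease assay of ClpP1P2, read by the AMC dye that it sets free. Target: ClpP1P2, Mycobacterium tuberculosis (UniProt P9WPC5 and UniProt P9WPC3). Concentration: 50 µM. Higher reads as stronger inhibition, judged from the few compounds that gave an IC50. Most other retested compounds had strongly negative values. About 69,000 compounds were tested under these conditions; 0.015% (about 10) showed 50% or more at least once.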
Toxoplasma: 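Assay of Toxoplasma gondii numbers, read through their beta-galactosidase reporter with a colour substrate. Compounds at 10 µM. The record gives no direction; the compounds picked for IC50 retests had high values, so higher reads as fewer parasites. Of about 67,000 compounds tested this way, about 260 (0.38%) reached 50% or more in at least one test.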
TcHisRS: 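Histidine-tRNA ligase, Trypanosoma cruzi CL Brener (UniProt Q4DA54). Enzyme assay of histidyl-tRNA synthetase; the read-out is not stated. Concentration: 30 µM. Direction is inferred from retests: higher values go with stronger inhibition. Of about 69,000 compounds tested this way, about 31 (0.045%) reached 50% or more in at least one test.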
Pks13 thioesterase: 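Polyketide synthase Pks13, Mycobacterium tuberculosis (UniProt I6X8D2). Enzyme assay of the thioesterase domain of polyketide synthase 13; the read-out is not stated. Compounds at 30 µM. The record gives no direction; the compounds picked for IC50 retests had high values, so higher reads as stronger inhibition. Size under these conditions: about 67,000 compounds, about 300 of them at 50% or above in at least one test.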
PfKRS1: 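Lysine-tRNA ligase, Plasmodium falciparum 3D7 (UniProt Q8IDJ8). Enzyme assay of the cytosolic lysyl-tRNA synthetase in 384-well plates, read by luminescence. Tested at 30 µM. Direction is inferred from only a few compounds that gave an IC50; most scored high, so higher reads as stronger inhibition. Size under these conditions: about 69,000 compounds, about 49 of them at 50% or above in at least one test.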

The filed quantity is “Percent Effect” (%). The record does not define 0% and 100%; most values in the screen are far below 50% and negative numbers occur (in some assays of this library far below -100). The compounds are a random part of those screened.

CN(C)c1ccc(C(=O)NCCCNc2ccc(C(F)(F)F)cn2)cc1 gave ClpP1P2: -12.35%; Toxoplasma: -11.11%; TcHisRS: 7.059%; Pks13 thioesterase: -13.19%; PfKRS1: 0.8406%. With COCCN1CCC2(COCc3cnc(-c4ccccc4)nc32)C1.O=C(O)C(F)(F)F (centres undefined) the screen gave Toxoplasma: -2.951%. CCS(=O)(=O)CCNC1CCN(c2nc3ccc(Cl)cc3s2)CC1 read ClpP1P2: -1.655%; Toxoplasma: 6.923%; TcHisRS: 4.615%; Pks13 thioesterase: 8.625%; PfKRS1: 6.309%. For [H][C@]12CC[C@]([H])(CN(C(=O)N(C)C)C1)N(C(=O)c1cccnc1SC)C2 the result was Toxoplasma: 8.58%.

COc1c(Cl)cc(C(=O)NCc2n[nH]c(C)n2)cc1Cl read ClpP1P2: -0.7412%; Toxoplasma: -9.086%; TcHisRS: 2.128%; Pks13 thioesterase: -25.06%; PfKRS1: 3.9%. For Cc1cccc(CN2Cc3nccn3CC(CN3CCOCC3)C2)c1.O=C(O)C(F)(F)F.O=C(O)C(F)(F)F (centres undefined) the result was Toxoplasma: -14.06%. COC(=O)c1cc(OCC2CCC2)cc(C(=O)N[C@@H]2CCCNC2)c1 gave ClpP1P2: -0.6799%; Toxoplasma: -11.35%; TcHisRS: 4.878%; Pks13 thioesterase: -9.552%; PfKRS1: 0.6943%. Result for COc1cccc(S(=O)(=O)NC(=O)CC2CCCC2)c1 was ClpP1P2: -2.086%; Toxoplasma: -1.618%; TcHisRS: 0.6369%; Pks13 thioesterase: -15.74%; PfKRS1: -2.413%.

For Cc1ccc(CN[C@@H]2CO[C@H](CNS(=O)(=O)c3ccccc3)[C@H]2O)cc1 the result was ClpP1P2: -9.945%; Toxoplasma: 0.5932%; TcHisRS: 2.174%; Pks13 thioesterase: 14.08%; PfKRS1: 3.985%. Result for CCc1ccc(NC(=O)Nc2c(O)oc3ccccc3c2=O)cc1 was ClpP1P2: -18.56%; Toxoplasma: -32.95%; TcHisRS: -0.4464%; Pks13 thioesterase: 0.6829%; PfKRS1: -0.6957%. With O=C(CC1CSc2nccc(=O)n21)NCc1ccco1 (centres undefined) the screen gave ClpP1P2: -5.003%; Toxoplasma: 1.718%; TcHisRS: 2.439%; Pks13 thioesterase: 3.535%; PfKRS1: 4.074%. CC(C)C(=O)NCCc1nc(-c2ccncc2)n[nH]1 read ClpP1P2: -17.2%; Toxoplasma: -14.92%; TcHisRS: -0.565%; Pks13 thioesterase: -2.115%; PfKRS1: 1.418%.

CC(C)N(C)Cc1ncn2c1CN(S(=O)(=O)c1cccs1)CCC2.O=C(O)C(F)(F)F read Toxoplasma: -24.39%. Result for OC(COCc1ccccc1Cl)CN1CCC(c2ccn[nH]2)CC1 (centres undefined) was ClpP1P2: -19.8%; Toxoplasma: -9.731%; TcHisRS: 2.857%; Pks13 thioesterase: -10.27%; PfKRS1: 0.513%. With Cc1ccc(N2CCCc3sc(C(=O)NCCC#N)nc32)nn1.O=C(O)C(F)(F)F the screen gave Toxoplasma: 12.42%.

For reference, 2 entries once more:

Result for OC(COCc1ccccc1Cl)CN1CCC(c2ccn[nH]2)CC1 (centres undefined) was ClpP1P2: -19.8%; Toxoplasma: -9.731%; TcHisRS: 2.857%; Pks13 thioesterase: -10.27%; PfKRS1: 0.513%.
Result for CCS(=O)(=O)CCNC1CCN(c2nc3ccc(Cl)cc3s2)CC1 was ClpP1P2: -1.655%; Toxoplasma: 6.923%; TcHisRS: 4.615%; Pks13 thioesterase: 8.625%; PfKRS1: 6.309%.